Laboratory results published in PMC3096577.
No constants are given. Whether binding was seen depends on the method and setting. In cells and extracts the contact can be indirect. Here binding means that the protein was enriched with, or labelled near, the bait; the list need not be complete. A no says only that the protein was not detected with the bait.

Amino acid sequences for entries named in this document (tags omitted).
UniProt P20442: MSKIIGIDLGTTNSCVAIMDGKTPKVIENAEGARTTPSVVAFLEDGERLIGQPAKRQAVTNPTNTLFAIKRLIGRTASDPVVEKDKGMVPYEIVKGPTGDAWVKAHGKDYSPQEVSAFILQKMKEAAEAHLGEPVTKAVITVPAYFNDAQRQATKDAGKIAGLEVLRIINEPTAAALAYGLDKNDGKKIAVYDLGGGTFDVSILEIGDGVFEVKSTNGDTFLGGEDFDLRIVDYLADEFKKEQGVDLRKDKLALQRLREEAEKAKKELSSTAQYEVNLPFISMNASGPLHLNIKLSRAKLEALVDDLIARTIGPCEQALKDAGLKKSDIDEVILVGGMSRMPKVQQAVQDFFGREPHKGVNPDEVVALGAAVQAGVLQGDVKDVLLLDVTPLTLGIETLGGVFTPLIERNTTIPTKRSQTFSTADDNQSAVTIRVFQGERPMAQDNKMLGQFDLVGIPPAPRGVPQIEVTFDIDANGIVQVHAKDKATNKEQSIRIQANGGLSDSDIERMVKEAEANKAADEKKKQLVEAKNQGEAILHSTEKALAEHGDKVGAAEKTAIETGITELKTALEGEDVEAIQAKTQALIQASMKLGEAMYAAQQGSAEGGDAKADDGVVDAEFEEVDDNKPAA
UniProt Q99QM0: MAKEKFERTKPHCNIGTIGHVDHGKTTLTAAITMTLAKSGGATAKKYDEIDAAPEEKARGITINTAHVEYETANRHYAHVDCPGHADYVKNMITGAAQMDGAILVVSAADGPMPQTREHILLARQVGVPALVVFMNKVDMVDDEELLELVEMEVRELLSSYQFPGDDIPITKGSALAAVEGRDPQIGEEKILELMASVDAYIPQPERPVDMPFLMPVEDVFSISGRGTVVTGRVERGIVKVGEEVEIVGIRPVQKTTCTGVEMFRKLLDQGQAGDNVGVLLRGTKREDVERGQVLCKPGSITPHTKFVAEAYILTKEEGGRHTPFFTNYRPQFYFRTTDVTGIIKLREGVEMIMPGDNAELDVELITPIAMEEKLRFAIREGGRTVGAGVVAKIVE

Molecular target: histidine-tagged wild-type FliX (C. crescentus)
Test: affinity purification with mass spectrometry; FliX-His coupled to CNBr-activated sepharose 4B beads; incubated overnight at 4°C with LS107 cell extract in PBS (0.1 M sodium phosphate, 0.15 M NaCl, pH 7.2); washed with PBS; bands of a Coomassie-stained SDS-PAGE gel identified by ESI-ion trap mass spectrometry; bead complexes also washed with phosphate buffer containing 0.3 to 2.65 M NaCl; only the target purified

Substance	binding
heat shock protein DnaK (from UniProt P20442 1-631)	no binding
elongation factor EF-Tu (from UniProt Q99QM0 1-396)	no binding
